The species named for the data set is Homo sapiens.

Molecules are shown by their SMILES.

Take `Oc1cccc(O)c1` [RESORCINOL]: the “log Kp” value is -7.18 cm/s.

These data come from ChEMBL document CHEMBL1138041, “Parallel artificial membrane permeability assay: a new membrane for the fast prediction of passive human skin permeability” (J Med Chem, 2006).
